Data: article doi:10.1101/2020.07.07.180133
These are yes or no findings as the source states them, for the method shown. In cells and extracts the contact can be indirect. A yes stands for co-enrichment or nearness to the bait. Other partners may have been found. For part of these data: No binding means not detected with the bait.

Chains of the proteins cited; added tags and fusions are not shown.
UniProt P10630: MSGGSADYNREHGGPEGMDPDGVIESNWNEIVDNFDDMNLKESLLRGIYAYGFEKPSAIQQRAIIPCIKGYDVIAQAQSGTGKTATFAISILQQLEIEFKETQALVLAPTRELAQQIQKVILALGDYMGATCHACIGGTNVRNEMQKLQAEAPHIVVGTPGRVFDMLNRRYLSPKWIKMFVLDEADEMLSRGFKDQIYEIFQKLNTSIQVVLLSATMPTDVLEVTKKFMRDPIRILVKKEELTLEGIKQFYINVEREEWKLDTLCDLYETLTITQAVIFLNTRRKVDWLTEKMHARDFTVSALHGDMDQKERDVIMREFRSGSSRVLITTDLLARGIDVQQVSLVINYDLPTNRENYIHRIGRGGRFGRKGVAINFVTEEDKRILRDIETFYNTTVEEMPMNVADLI
UniProt Q8CJG0: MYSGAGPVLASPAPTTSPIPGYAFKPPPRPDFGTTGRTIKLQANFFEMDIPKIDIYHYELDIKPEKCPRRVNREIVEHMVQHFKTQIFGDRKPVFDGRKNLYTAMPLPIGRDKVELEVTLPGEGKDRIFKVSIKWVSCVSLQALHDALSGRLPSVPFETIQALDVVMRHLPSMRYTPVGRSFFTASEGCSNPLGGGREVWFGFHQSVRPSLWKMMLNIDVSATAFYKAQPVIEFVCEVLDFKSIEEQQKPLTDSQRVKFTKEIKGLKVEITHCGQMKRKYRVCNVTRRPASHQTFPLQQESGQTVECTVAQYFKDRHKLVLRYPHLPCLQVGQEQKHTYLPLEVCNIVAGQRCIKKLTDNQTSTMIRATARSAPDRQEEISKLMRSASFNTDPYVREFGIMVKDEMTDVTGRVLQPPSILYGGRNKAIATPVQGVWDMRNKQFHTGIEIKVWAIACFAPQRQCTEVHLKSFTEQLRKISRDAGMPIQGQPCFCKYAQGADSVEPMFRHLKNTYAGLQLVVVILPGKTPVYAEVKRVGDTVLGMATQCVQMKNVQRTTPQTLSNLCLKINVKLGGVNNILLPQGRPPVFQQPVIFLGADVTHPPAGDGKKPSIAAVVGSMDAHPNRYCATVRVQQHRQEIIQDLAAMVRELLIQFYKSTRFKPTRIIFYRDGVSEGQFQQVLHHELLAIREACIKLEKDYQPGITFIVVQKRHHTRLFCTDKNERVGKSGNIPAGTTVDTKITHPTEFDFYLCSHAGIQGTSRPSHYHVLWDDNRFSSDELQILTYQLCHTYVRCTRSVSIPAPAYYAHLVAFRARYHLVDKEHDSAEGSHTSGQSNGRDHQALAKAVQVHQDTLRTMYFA
UniProt P48432: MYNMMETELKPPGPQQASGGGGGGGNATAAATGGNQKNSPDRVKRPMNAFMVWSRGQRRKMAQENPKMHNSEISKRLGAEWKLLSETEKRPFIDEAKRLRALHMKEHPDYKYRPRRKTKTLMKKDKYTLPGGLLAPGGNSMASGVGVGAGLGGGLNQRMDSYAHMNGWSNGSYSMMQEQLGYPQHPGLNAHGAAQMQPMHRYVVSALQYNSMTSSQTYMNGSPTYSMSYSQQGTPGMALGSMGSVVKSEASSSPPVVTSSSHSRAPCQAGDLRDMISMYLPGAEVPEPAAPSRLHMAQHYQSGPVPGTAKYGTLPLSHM
UniProt Q61037: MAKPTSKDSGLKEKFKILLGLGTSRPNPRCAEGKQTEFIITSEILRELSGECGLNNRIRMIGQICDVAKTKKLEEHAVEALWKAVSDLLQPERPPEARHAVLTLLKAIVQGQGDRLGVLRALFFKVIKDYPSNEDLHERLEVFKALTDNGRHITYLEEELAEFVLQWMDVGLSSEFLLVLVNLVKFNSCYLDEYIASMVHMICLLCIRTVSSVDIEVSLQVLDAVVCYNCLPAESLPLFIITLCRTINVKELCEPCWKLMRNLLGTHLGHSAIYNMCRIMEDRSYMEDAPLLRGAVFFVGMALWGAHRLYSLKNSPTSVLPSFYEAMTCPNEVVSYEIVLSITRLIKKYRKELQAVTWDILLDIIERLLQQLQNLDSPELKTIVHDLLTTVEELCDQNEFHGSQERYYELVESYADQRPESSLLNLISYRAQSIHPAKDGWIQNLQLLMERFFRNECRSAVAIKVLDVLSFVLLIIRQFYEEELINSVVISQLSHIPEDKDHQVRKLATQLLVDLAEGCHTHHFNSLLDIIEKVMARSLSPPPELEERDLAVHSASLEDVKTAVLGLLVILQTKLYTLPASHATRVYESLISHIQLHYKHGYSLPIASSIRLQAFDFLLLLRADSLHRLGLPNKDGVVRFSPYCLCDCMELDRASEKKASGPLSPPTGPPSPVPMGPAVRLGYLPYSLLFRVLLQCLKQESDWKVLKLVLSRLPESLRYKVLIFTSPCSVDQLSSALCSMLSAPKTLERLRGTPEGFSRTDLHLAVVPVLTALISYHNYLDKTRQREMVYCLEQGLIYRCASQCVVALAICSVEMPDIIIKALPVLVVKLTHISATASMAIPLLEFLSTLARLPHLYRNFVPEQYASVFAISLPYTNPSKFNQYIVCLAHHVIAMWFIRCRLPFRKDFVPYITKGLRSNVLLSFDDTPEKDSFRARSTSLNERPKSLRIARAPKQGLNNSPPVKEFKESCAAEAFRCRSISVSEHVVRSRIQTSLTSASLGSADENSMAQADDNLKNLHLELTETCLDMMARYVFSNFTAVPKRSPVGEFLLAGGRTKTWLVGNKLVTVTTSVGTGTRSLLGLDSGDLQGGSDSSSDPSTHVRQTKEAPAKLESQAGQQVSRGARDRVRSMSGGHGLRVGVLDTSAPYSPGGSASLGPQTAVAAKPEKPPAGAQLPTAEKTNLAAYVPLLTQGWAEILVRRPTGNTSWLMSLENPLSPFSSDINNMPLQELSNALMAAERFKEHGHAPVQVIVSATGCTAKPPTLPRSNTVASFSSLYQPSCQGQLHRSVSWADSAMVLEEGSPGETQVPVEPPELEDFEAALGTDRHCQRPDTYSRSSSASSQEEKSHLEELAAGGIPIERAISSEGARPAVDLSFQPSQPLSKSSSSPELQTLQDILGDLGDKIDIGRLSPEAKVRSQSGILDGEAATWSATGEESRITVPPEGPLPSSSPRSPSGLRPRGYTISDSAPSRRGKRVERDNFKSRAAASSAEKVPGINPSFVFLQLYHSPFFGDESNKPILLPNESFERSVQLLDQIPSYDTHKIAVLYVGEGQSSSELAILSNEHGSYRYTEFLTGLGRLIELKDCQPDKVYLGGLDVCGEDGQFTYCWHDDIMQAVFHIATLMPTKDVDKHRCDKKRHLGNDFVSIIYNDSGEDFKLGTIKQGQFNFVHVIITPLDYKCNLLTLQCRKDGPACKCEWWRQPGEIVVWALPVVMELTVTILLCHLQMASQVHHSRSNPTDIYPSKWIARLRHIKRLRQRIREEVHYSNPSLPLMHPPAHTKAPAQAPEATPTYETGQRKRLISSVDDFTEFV
UniProt P61406: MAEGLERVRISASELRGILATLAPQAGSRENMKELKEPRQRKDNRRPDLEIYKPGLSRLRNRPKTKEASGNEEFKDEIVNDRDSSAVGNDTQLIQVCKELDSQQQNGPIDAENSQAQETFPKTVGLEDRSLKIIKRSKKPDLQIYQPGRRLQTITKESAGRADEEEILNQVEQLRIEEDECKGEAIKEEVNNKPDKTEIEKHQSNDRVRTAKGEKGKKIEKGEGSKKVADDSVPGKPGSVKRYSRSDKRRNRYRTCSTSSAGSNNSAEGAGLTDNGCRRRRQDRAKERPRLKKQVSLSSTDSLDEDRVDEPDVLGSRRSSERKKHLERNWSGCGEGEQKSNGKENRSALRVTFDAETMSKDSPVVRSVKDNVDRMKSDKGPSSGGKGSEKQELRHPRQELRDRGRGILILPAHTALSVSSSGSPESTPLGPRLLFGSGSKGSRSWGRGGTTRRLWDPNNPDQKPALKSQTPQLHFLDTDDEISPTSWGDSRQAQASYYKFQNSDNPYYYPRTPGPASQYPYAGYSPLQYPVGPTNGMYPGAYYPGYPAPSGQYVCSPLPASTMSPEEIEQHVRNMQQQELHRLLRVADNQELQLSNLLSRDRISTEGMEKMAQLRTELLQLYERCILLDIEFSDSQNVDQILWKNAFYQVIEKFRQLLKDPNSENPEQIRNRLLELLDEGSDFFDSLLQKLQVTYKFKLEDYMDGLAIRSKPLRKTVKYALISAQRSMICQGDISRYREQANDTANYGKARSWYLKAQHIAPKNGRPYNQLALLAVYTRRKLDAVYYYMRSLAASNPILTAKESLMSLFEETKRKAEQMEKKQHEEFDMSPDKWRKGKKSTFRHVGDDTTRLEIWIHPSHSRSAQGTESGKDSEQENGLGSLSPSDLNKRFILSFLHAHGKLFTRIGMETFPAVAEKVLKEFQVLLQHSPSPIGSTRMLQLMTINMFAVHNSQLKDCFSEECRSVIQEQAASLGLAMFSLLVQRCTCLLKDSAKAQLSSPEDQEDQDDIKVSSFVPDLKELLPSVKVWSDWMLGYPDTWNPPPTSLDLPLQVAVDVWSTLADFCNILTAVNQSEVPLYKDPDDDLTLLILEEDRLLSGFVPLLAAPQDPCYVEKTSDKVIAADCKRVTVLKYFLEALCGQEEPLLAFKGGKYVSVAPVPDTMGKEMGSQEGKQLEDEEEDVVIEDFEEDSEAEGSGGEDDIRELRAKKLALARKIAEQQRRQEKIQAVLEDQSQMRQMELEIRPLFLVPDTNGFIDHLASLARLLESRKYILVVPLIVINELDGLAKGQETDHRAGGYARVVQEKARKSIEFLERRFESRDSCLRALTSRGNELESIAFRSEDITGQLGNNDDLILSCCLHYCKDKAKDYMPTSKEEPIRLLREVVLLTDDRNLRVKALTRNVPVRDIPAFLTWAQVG
UniProt Q80U78: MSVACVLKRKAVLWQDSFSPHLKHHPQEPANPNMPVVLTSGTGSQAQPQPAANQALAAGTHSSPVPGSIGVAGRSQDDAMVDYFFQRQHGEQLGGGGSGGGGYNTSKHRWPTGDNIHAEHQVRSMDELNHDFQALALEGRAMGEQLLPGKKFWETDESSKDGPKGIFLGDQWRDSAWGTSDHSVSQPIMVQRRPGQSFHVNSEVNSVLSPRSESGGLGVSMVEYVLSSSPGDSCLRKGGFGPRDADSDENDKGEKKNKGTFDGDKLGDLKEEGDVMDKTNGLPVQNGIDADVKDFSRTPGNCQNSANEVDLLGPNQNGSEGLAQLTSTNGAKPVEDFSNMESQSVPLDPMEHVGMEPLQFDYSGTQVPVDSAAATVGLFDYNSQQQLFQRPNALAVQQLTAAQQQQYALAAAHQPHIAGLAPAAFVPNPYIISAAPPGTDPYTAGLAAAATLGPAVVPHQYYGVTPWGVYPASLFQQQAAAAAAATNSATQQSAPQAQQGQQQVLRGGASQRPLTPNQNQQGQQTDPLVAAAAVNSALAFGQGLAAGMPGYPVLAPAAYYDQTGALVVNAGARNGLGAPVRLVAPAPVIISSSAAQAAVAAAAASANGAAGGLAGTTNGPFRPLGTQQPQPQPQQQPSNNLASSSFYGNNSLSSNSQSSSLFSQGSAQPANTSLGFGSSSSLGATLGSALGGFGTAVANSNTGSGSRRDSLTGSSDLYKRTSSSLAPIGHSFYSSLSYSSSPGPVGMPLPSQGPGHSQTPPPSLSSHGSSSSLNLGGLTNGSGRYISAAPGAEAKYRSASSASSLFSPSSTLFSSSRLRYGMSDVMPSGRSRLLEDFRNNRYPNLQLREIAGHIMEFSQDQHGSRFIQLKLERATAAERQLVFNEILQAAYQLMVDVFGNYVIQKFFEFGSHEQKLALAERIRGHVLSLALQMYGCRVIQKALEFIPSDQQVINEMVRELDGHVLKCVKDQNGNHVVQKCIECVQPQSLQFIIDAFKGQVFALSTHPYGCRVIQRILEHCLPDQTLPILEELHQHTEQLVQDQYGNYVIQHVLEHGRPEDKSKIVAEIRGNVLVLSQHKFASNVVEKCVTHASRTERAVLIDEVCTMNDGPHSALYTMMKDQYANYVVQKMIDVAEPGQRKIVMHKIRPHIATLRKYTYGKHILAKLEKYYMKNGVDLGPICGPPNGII
UniProt P60843: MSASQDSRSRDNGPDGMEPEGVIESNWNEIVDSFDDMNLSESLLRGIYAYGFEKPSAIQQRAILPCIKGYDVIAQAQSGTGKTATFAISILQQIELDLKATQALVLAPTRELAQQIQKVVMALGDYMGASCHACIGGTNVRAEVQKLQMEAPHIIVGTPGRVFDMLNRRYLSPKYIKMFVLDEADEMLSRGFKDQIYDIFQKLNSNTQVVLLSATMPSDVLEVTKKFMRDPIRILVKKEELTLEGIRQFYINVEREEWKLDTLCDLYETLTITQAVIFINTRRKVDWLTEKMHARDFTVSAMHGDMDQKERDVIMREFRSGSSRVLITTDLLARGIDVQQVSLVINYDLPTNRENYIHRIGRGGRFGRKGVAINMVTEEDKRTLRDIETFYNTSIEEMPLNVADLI

B1: Trim71 (protein, UniProt Q1PSW8 1-855)
chain: MASFPETDFQICLLCKEMCGSPAPLSSNSSASSSSSQTSTSSAGGGGPGAAARRLHVLPCLHAFCRPCLEAHRLPAPGGAGPAEALKLRCPVCDQKVVLAEAAGMDALPSSAFLLSNLLDAVVATAEEPPPKNGRAGGGPGGAGGHSNHRHHAHHPAQRAAAPAPQPPPGPAASPGSLLMRRPHGCSSCDEGNAASSRCLDCQEHLCDNCVRAHQRVRLTKDHYIERGPPGPAAASAAQQLGLGPPFAGAPFSILSVFPERLGFCQHHDDEVLHLYCDTCSVPICRECTLGRHGGHSFAYLQDALQDSRALTIQLLADAQQGRQALQLSIEQAQTVAEQVEMKAKVVQSEVKAVTARHKKALEDRECELLWKVEKIRQVKAKSLFLQVEKLRQSLSKLESTISAVQQVLEEGRALDILLARDRMLAQVQELKTIRGLLQPQEDDRIMFTPPDQALYLALKSIGFVSSGAFAPLTKATGDGIKRALQGKVASFTVMGYDHDGEPRHSGGDLMSVVVLGPDGNLFGAEVSDQQNGTYIVSYRPQLEGEHLVSVTLYNQHIENSPFKVVVKSGRSYVGIGLPGLSFGSEGDGEGKLCRPWGVSVDKEGFIIVADRSNNRIQVFKPCGSFHHKFGTLGSRPGQFDRPAGVACDASRRIIVADKDNHRIQIFTFEGQFLLKFGEKGTKNGQFNYPWDVAVNSEGKILVSDTRNHRIQLFGPDGVFLNKYGFEGSLWKHFDSPRGVAFNNEGHLVVTDFNNHRLLVIHPDCQSARFLGSEGSGNGQFLRPQGVAVDQEGRIIVADSRNHRVQMFEANGSFLCKFGAQGSGFGQMDRPSGIAVTPDGLIVVVDFGNNRILIF
B2: Nr0b1 (Dax1) (protein, UniProt Q61066 1-472)
chain: MAGEDHPWQGSILYNLLMSAKQKHASQEEREVRLGAQCWGCACGAQPVLGGERLSGGQARSLLYRCCFCGENHPRQGGILYSMLTNARQPSVATQAPRARFGAPCWGCACGSAEPLVGREGLPAGQAPSLLYRCCFCGEEHPRQGSILYSLLTSAQQTHVSREAPEAHRRGEWWQLSYCTQSVGGPEGLQSTQAMAFLYRSYVCGEEQPQQISVASGTPVSADQTPATPQEQPRAPWWDASPGVQRLITLKDPQVVCEAASAGLLKTLRFVKYLPCFQILPLDQQLVLVRSCWAPLLMLELAQDHLHFEMMEIPETNTTQEMLTTRRQETEGPEPAEPQATEQPQMVSAEAGHLLPAAAVQAIKSFFFKCWSLNIDTKEYAYLKGTVLFNPDLPGLQCVKYIEGLQWRTQQILTEHIRMMQREYQIRSAELNSALFLLRFINSDVVTELFFRPIIGAVSMDDMMLEMLCAKL

The molecules below were run against flag-tagged Eif4a2^FL (mouse) (UniProt P10630) (assay: affinity purification with mass spectrometry).
For Raf1 (from UniProt Q99N57 1-648), the binding was “no binding”. In the case of Ago2 (from UniProt Q8CJG0 1-860), the binding is reported as “binds”. With Sox2 (from UniProt P48432 1-319) the binding was “binds”. In the case of Tsc2 (from UniProt Q61037 1-1814), the binding is reported as “no binding”. Smg6 (from UniProt P61406 1-1418) was tested, and the binding was “binds”. With Pum1 (from UniProt Q80U78 1-1189) the binding was “binds”. With Eif4a1 (from UniProt P60843 1-406) the binding was “no binding”. Upf1 (from UniProt Q9EPU0 1-1124) was tested, and the binding was “binds”. In the case of B1, the binding is reported as “binds”. With B2 the binding was “binds”.

These molecules were tested against flag-tagged Eif4a2^PTC (mouse) (assay: affinity purification with mass spectrometry).
For B1, the binding was “binds”. In the case of B2, the binding is reported as “binds”.
